According to PubChem BioAssay AID1347423 (Functional Genomics Laboratory (NCATS/FGL), 2020):
The whole screen tested about 52,000 sequences, of which about 210 (0.4%) were called active.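 Rule for the calls: active = gene whose silencing raises cell survival under the drug, median off-target-corrected z-score across its silencing RNAs 2 or more; inactive = the rest.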 The list shows a part of the results.

Test: Resistance to Poly (ADP-Ribose) Polymerase inhibitor: Gene Identification via Genome-wide siRNA Screen
Settings: mouse BRCA2 R2336H ES cells, olaparib, CellTiter-Glo viability; active compounds read high
In short: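 Genome-wide siRNA screen (3 siRNAs/gene, 20 nM) in mouse ES cells carrying hypomorphic BRCA2 R2336H; olaparib 500 nM added 48 h post-transfection, CellTiter-Glo viability 72 h later. Normalized to plate-median negative control; MAD z-scores, gene median, seed-adjusted.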

Sequence | z-score
GGAAAAAAAACACUGACUGTT against Hoxa5 | inactive: 0.197
GCAACUGGUGAUAAGGUGUTT against E030034P13Rik | inactive: -1.6
CGAAGGAGUCAAAACUGGGTT against Klk8 | inactive: -0.352
GGAAGAAUGUAGGAGGAAGTT against Sln | inactive: -0.446
GGUUAGGUUGAUGAAUAAGTT against Eif4ebp2 | inactive: -0.495
GGAGACCUUCAAAAAGGUGTT against Tmprss4 | inactive: 0.015
GGAUCAUUUCUGGCAAGAGTT against Irf7 | inactive: -0.0691
GGAGAAUCCUCAUUGACACTT against Lactb2 | inactive: 0.489
CCGCCAGGGAAACAAAUACTT against 0610030H11Rik | inactive: -2.42
GGCCACUAUAACUGAUCCGTT against 4930577M16Rik | inactive: 1.95
GGGAAACUUGAACUUUGAUTT against Tsga2 | inactive: -2.32
GCGGUUUCGAACAAUCACGTT against Rab8a | inactive: -0.53
GGGAUGUGUCCUGACUUUUTT against BC066028 | inactive: -1.12
GGAGUUGCCAUGCUCAACATT against Olfr808 | inactive: -1.39
GUUACCUCAGUGUUAUACUTT against Olfr45 | inactive: 0.91
CCUAACUCACAACAAUUACTT against Olfr304 | inactive: 0.65
GGAUUUUCAAUUCAUACCCTT against Psmb1 | inactive: 2.18
GGGUGAGAUAAUUGAAAAGTT against Slc12a6 | inactive: 0.205
GCGUGCGGAUAACAAAAGCTT against D11Wsu47e | inactive: 0.303
GGCGAAAAAUACAAAUUCCTT against Vamp1 | inactive: 0.596
GGAGCAAGGAAAGUGGCUGTT against 2010001O09Rik | inactive: -0.475
GCUUUUGAAUGUGUGGACUTT against 0610033E06Rik | inactive: 1.19
CGAUUUGCCCAAUAAAGAATT against Scn9a | inactive: 0.365
GGCUAUCACAUGUAACUUCTT against Lman1l | inactive: -1.58
GCAAUCACCAAAUCACUAGTT against Fstl1 | inactive: -1.71
GAGACAAUUGUAACAUUCUTT against Olfr176 | inactive: -0.95

Sequence | z-score
GGUGGAUGGCUUCACGCAUTT against Calr3 | inactive: 0.388
GGGAGGUAAGAAUCUUUAUTT against 4930548G07Rik | inactive: -0.29
GGGAGAAUCUAACUAAGCCTT against Sirt7 | inactive: -0.952
GGCAUUCCUAAUGACACGGTT against Dpep3 | inactive: -0.125
GGAUACCUAGUUCUUAGUUTT against B430216B18Rik | inactive: -0.048
GGAUUUUCUCUAUGCAGGCTT against BC057552 | inactive: -0.273
GGAAAACCUCAAACCUAACTT against Oas2 | inactive: -0.124
AAGGUGCAGAGUUACACGUTT against H2-T10 | inactive: -0.306
GCUAUGGAGGCUAUGGAUGTT against Krtap16-9 | inactive: 1.3
GGUCAGAAGUUAAUUUAUGTT against Rad23b | inactive: -1.23
GCCUAAGAAGGAUAGUAUUTT against Taf5 | inactive: -0.93
CGAUUCAUUCAGUUUGUAATT against 4930532D21Rik | inactive: -1.19
GGUUCUCGAAAUAAGAAUGTT against Mcm8 | inactive: 0.117
GCAUCUCGAUCAUAUCAUGTT against Pgm3 | inactive: 1.11
GGAAUAUUCUAUUCCCUUUTT against Trim25 | inactive: 0.694
GUGAAAGUCGGAUUCAGUGTT against Acat2 | inactive: -1.34
GGAAGUAUUACCCUCAAUUTT against Zfp212 | inactive: -0.125
CGUGACUAUUCUGAUAAGUTT against Arfrp2 | inactive: 0.787
GGUUAGAGGGAGAAGUGAATT against Grinl1a | inactive: -1.56
GCUUUUGACACUUAUAUGATT against Ptk7 | inactive: 0.589
GGCUUUGCUCGGUUUGGUATT against BC066107 | inactive: -0.225
GCAGUUUGUUCAAAGUAGCTT against Gm78 | inactive: 0.82
GGAUUCACAUUUCUAAAGCTT against Adcy8 | inactive: 1.11
GGGAACUGCACAAUACAAATT against 4933415L06Rik | inactive: -0.793
GCCCAAGUGUGAUAAAUGCTT against Ntn4 | inactive: 1.6
CCAAGAAUGACGAUUGCUCTT against Dmn | inactive: 0.971

Some values from the results shown:
z-score, GCAUCUCGAUCAUAUCAUGTT against Pgm3 reads inactive: 1.11
z-score, GGAAUAUUCUAUUCCCUUUTT against Trim25 reads inactive: 0.694
z-score, CGUGACUAUUCUGAUAAGUTT against Arfrp2 reads inactive: 0.787
z-score, CCAAGAAUGACGAUUGCUCTT against Dmn reads inactive: 0.971
z-score, GCUAUGGAGGCUAUGGAUGTT against Krtap16-9 reads inactive: 1.3

(listing goes on)

Sequence | z-score
GGAGGCAUACAUGACAAAATT against C80879 | inactive: -0.441
GCCUGUCAUGGUUAUGACCTT against Shbg | inactive: 0.554
GGAGAUGAAGCAAUGGCCCTT against Bmp15 | inactive: 0.0144
GCAAAACCAUUUGAAAAUGTT against Negr1 | inactive: -0.48
GCAAUAUGUGACAAACUUCTT against Ptpn8 | inactive: 1.3
GGACACCAACAUAUUGUUCTT against Slc13a2 | inactive: 0.104
GGCUAUGCAGAUAAAUAUGTT against Lctl | inactive: -0.374
GCGGUGUGAAGAUUGUACATT against Hsd17b3 | inactive: -0.193
CGUACUAUACUAACACAGATT against Arl5 | inactive: 0.907
GGUGAUCUUUUAUAUUGUGTT against Dmc1h | inactive: -0.546
GCUAUAAGGCUUAAUAGGGTT against BC038059 | inactive: 0.943
GGCAGUCGGGAUUGUAAAATT against Gpr3 | inactive: -0.572
GGGCUGAAUAAGGAACUGUTT against 1700080E11Rik | inactive: -0.374
CCGCAUAUUUCAAUAAAUCTT against Rpl4 | inactive: -1.94
GGUCUUGGAUGCAAACGAUTT against Pcdhga2 | inactive: -0.965
GGUCAAGUUCAAGUGAGGATT against Zadh1 | inactive: -1.29
GGUCAGUCCCUAGAUUAUATT against A430096B05Rik | inactive: -0.467
GGUUUAGCUGCUGACUUAATT against Strn3 | inactive: -1.03
CCAGAGAUUGGACACAUCUTT against Vps33b | inactive: 0.863
GCUCUGCUGUAGACGUGAATT against C130060K24Rik | inactive: 0.354
GGCAUCUUCCUUUAAAAAGTT against Nola1 | inactive: -1.29
CCACCUCAGCUCUUGUGAUTT against H2-Ab1 | inactive: -0.646
GGGUUAUUCUACGAAUGCUTT against Thumpd1 | inactive: -0.297
GGGUGCAUGUGUCAGAUUUTT against Olfr1277 | inactive: -0.167
GCAUGUAGCCCUAAUUUUGTT against 5730551F12Rik | inactive: 0.214
GCAGUAACCUUCUAACAAATT against Foxn2 | inactive: 0.314

A run of entries from the list above:
Sequence | z-score
CGAUUCAUUCAGUUUGUAATT against 4930532D21Rik | inactive: -1.19
GGUUCUCGAAAUAAGAAUGTT against Mcm8 | inactive: 0.117

The list goes on:

Sequence | z-score
GCAGUACCACUCUCUUUUUTT against 2610304F09Rik | inactive: 0.155
GGAUCAGGAUUUAAUGAAUTT against 3110050N22Rik | inactive: 0.285
GGCUUAAAUGCGUUCUACATT against Slc25a3 | inactive: -1.28
GGGAUCCUCUUGACAUUCCTT against AU040950 | inactive: -0.938
GAAGGCCAAUGAUCGGGAGTT against Neurog3 | inactive: -0.539
GGAUAUUCGAGCAACCUUUTT against Pcdhb18 | inactive: 0.259
GCCCUACACCUGUAUUACATT against Tas1r3 | inactive: 0.998
GGCAAAGUUGUCCUAAGGUTT against Rab27b | inactive: 0.928
GGCUGCUUCAGAUUUUCACTT against Naalad2 | inactive: -0.162
GCUGAAAGAUUUACUGCCCTT against Bhlhb3 | inactive: 0.869
GCCAGUUACGCGGACAUUUTT against Rasgrf2 | inactive: -1.12
GCACAGGUGAGCUCUUUGATT against Nudt10 | inactive: -0.345
GGAUAAGGUCCAGUACUUGTT against Mapk13 | inactive: 0.0642
CCAUCAGGUUUAAGUCGUATT against 2210415M20Rik | inactive: -0.646
GCUAAUGGCAGAGUAACCUTT against Pcdhga1 | inactive: 0.692
CCACAUUGUAGGCAACCAATT against Hpd | inactive: 0.682
GGCGGUGAUGGAAUGAACATT against Plod2 | inactive: -0.634
GCCAAACUUACGUUUUUGATT against Als2cr3 | inactive: 0.163
GGUAUAUAACAACCUGUAUTT against 1700031F13Rik | inactive: 1.2
GCACCAAUAUUAGGCUGACTT against Ccrn4l | inactive: 1.43
GGUGCCAAUGACAUAUUGGTT against H2-M10.5 | inactive: 0.255
GAUGUUCUUUGUCCACAUGTT against Olfr666 | inactive: -0.163
GGAUACAGCCUGCCAGUUCTT against BC035954 | inactive: -0.187
GGCCUUGCUUCGAUGUAGUTT against Gemin7 | inactive: -0.183
GAAGGAGAAGGAAGAGUUGTT against Cadps | inactive: 0.443
GCCACAACUGGCACGUUACTT against Mbd3 | inactive: 0.995
